Assay results reported in PubChem BioAssay AID1259415 (National Center for Advancing Translational Sciences (NCATS), 2018).
Out of some 410,000 compounds screened, about 18,000 (4.4%) were called active. Inconclusive means that the source gave no clear call. Such entries were picked first, then a sample of the others. Rule as the data show it: active = activity change below about -60%; inconclusive = no clear call, values can overlap the other calls; inactive = above about -39%.

Assay: qHTS Assay for inhibitors of the human cytomegalovirus (HCMV)
Settings: HFF cells, HCMV-luciferase reporter, 72 h; at 57.5 µM; stronger effect = lower value
How it was run: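 Luciferase read-out from HCMV-luciferase-infected HFFs (MOI 1 PFU/cell) 72 h post infection at 37C; compounds added after 16 h cell attachment; activity normalized between buffer-only basal and Salinomycin (10uM) inhibitor controls.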
% is scaled to controls: 0 for no effect and ±100 for the full control effect.

Compound | activity change, negative = inhibition
Cc1[nH]c2ccccc2c1CCNC(=O)c1ccc2c(c1[N+](=O)[O-])C(=O)c1ccccc1C2=O | active: -75.3%
COC(=O)C1=C(COc2ccccc2)NC(=O)NC1c1ccc(Br)cc1 (centres undefined) | inconclusive: -59.8%
COc1cc(/C=C2\CCC(C3CCCC3)C2=O)cc(OC)c1OC (centres undefined) | inconclusive: -41.6%
CCC(C)[C@H](NC(=O)N1CCC(Cc2ccccc2)CC1)C(=O)O (some centres undefined) | inconclusive: -57.1%
Cc1ccnc(NC(=O)C2CCCN(S(=O)(=O)c3ccc4[nH]c(=O)ccc4c3)C2)c1 (centres undefined) | inactive: -8.14%
Oc1ccccc1C1=NN(c2ccccc2)C(c2ccc(F)cc2)C1 (centres undefined) | active: -73.7%
CCN(CC)S(=O)(=O)c1cccc(NC(=O)CCSc2ccc(Cl)cc2)c1 | inconclusive: -41.5%
COc1cccc(C(=O)NCC(=O)N/N=C/c2ccc(OC(=O)c3cccs3)c(OC)c2)c1 | inconclusive: -47.7%
COc1ccc(C(NC(C)=O)c2nccc3cc(OC)c(OC)cc23)cc1OC (centres undefined) | inactive: 16.8%
CCN1C(=S)N[C@@H](c2cccs2)C(C(=O)OC)=C1C | inconclusive: -51.9%
Clc1ccc(C(c2ccccc2Cl)C(Cl)Cl)cc1 (centres undefined) | inconclusive: -52.2%
CN(C)C(=O)CC12CC3CC(C1)CC(CC(=O)N(C)C)(C3)C2 | inconclusive: -51.6%
O=C(Cc1ccc(Cl)cc1Cl)Nc1ccc(OC(F)F)c(Cl)c1 | inconclusive: -43.3%
CCN(CC(=O)Nc1ccccc1C(F)(F)F)C(=O)c1ccc(=O)n(Cc2ccccc2)n1 | inconclusive: -47.9%
CC(C)(C)N(CC#CCC(O)(c1ccccc1)C1CCCC1)CCO (centres undefined) | inconclusive: -44.7%
CCOc1ccc(CNC(=O)CCCn2c(=O)c3cccn3c3ccc(F)cc32)cc1 | inconclusive: -47.6%
CC(=O)N1CCc2c(sc3c2c(=O)n(Cc2ccccc2)c(=O)n3CC(=O)Nc2ccc(C)c(F)c2)C1 | inconclusive: -59.4%
CCCCNC(=O)c1nc(C2CCN(S(=O)(=O)c3ccccc3C(F)(F)F)CC2)oc1-c1ccccc1 | inactive: -7.57%
Cc1ccc(Cn2nc(C)c(NC(=O)c3cc(-c4ccco4)on3)c2C)cc1 | inconclusive: -55.4%
O=C(CSc1ccc(-c2cccnc2)nn1)Nc1ccc(Br)cc1 | inconclusive: -42.7%
Cc1cccc(OCC(=O)Nc2ccc3nc(Nc4cccc(Cl)c4)cc(C)c3c2)c1 | active: -63.3%
Cc1ccc(S(=O)(=O)N(C)C)cc1NC(=S)NC1CCCC(C)C1C (centres undefined) | inconclusive: -59.4%
CN(CCc1ccccn1)C(=S)Nc1ccc(Cl)cc1Cl | inconclusive: -54.6%
Cc1c(C(=O)Nc2ccc(-n3cnnn3)cc2)oc2ccccc12 | active: -65.5%
O[C@H]1C[C@H](c2ccccc2)N(CC2CCCCC2)C[C@@H]1n1cc(-c2ccc(F)cc2)nn1 | active: -101%
Cc1cc(-n2c(SCC(=O)Nc3ccc(Br)cc3)nc3n[nH]c(C)c3c2=N)ccc1Cl | active: -75.3%
CC(=O)c1cccc(NC(=S)N2CCN(S(=O)(=O)c3ccc(F)cc3)CC2)c1 | inconclusive: -43.8%

Individual results from above:
In activity change, negative = inhibition, CN(CCc1ccccn1)C(=S)Nc1ccc(Cl)cc1Cl is listed with inconclusive: -54.6%
In activity change, negative = inhibition, Clc1ccc(C(c2ccccc2Cl)C(Cl)Cl)cc1 (centres undefined) is listed with inconclusive: -52.2%
In activity change, negative = inhibition, Cc1cccc(OCC(=O)Nc2ccc3nc(Nc4cccc(Cl)c4)cc(C)c3c2)c1 is listed with active: -63.3%
In activity change, negative = inhibition, Cc1ccnc(NC(=O)C2CCCN(S(=O)(=O)c3ccc4[nH]c(=O)ccc4c3)C2)c1 (centres undefined) is listed with inactive: -8.14%

(continued)

Compound | activity change, negative = inhibition
COCC1CCCN(C(=O)c2cc(COc3ccc4ncccc4c3)on2)C1 (centres undefined) | active: -85%
Cc1cc(-n2cnnn2)ccc1C(C)C | inactive: 11.1%
COc1ccc(CCNc2nc(=S)[nH]c3cc(OC)c(OC)cc23)cc1OC | inconclusive: -46.5%
CCn1nc(C(=O)NNS(=O)(=O)c2ccc(C)cc2)c2ccccc2c1=O | inactive: 28.8%
COc1cccc(C(=O)N2CCN=C2SC)c1 | inactive: 35.7%
COc1ccc(NC(=O)Cn2ccn(-c3ccccc3)c(=O)c2=O)cc1 | inconclusive: -47%
O=C1CC(NNc2ccccc2)C(=O)N1c1ccccc1 (centres undefined) | inconclusive: -44.6%
CC(=O)Nc1ccc(S(=O)(=O)N[C@@H](C)C(=O)NC2CCCc3ccccc32)cc1 (some centres undefined) | inactive: -35.5%
CCc1ccc(S(=O)(=O)c2nnn3c2nc(NCc2ccccc2OC)c2cc(Cl)ccc23)cc1 | inconclusive: -48.4%
O=C(c1ccc(COc2ccccc2Cl)o1)N1N=C(C(F)F)CC1(O)C(F)F (centres undefined) | inconclusive: -46%
COc1ccccc1-c1ncn(Cc2cccc(-c3ccccc3)c2)c1-c1cc(C)cc(C)c1 | inconclusive: -47%
Cc1cc(-c2ccc(C)c(S(=O)(=O)NCc3ccc(Br)cc3)c2)on1 | active: -64.2%
COC(=O)CN1C(=O)COc2ccc(S(=O)(=O)N3CCOCC3)cc21 | inactive: -9.25%
CC(C)(C)c1ccc(-c2nnc(SCCC#N)n2C2CCCC2)cc1 | inconclusive: -40.4%
CCOc1ccc(OCC)c(NC(=O)C2CCN(c3cnccn3)CC2)c1 | inconclusive: -51.8%
Clc1ccc(CN2CCC(c3nc4ccc(Cl)cc4[nH]3)CC2)cc1 | active: -65.5%
COc1cc(/C=N/NC(=O)c2ccc3c(c2)OCO3)ccc1O | inactive: 59.8%
CC1CCCC(NC(=S)Nc2ccc(SC(F)F)cc2)C1C (centres undefined) | inconclusive: -40%
O=C(COC(=O)C1C2CC3OC(=O)C1C3C2)Nc1ccc(Cl)cc1 (centres undefined) | inactive: -7.1%
CCCCn1c(N)c(N(C(=O)CSc2nncn2-c2ccccc2)C2CCCC2)c(=O)[nH]c1=O | inconclusive: -40.3%
COc1cc(C2C(C#N)=C(N)Oc3cc(O)ccc32)cc(OC)c1OC (centres undefined) | active: -89.1%
C/C(=N\N(Cc1ccccc1)c1ccccc1)c1ccncc1 | inconclusive: -46.6%
CC(C)(C)NCC(O)COc1ccccc1C(=O)CCc1ccccc1 (centres undefined) | inconclusive: -40.2%
COc1cc2c(cc1NC(=O)c1cccc([N+](=O)[O-])c1)oc1ccccc12 | inconclusive: -55.1%
O=C1c2ccccc2[C@@H]2C[C@@H](O)[C@H](Nc3ccccc3)CCN12 | inactive: 11.8%
CCC(C(=O)NCCCN(CC)CC)n1ncn2c(cc3occc32)c1=O (centres undefined) | inactive: -31.7%
C[C@H]1CC[C@@]2(C)[C@@H](CC[C@@H]3[C@@H]2CC[C@]2(C)[C@@H](O)CC[C@@H]32)C1 | active: -100%
